Data from patent publication EP4755914A1.
No constants are given. Whether binding was seen depends on the method and setting. Some results given as binding are weak or reduced against the parent protein; the word gives no strength.

By UniProt entry, the sequences of proteins in these tests, tags left out. Residues count along the entry.
ROR1 antigen (Q01973, residues 30-403): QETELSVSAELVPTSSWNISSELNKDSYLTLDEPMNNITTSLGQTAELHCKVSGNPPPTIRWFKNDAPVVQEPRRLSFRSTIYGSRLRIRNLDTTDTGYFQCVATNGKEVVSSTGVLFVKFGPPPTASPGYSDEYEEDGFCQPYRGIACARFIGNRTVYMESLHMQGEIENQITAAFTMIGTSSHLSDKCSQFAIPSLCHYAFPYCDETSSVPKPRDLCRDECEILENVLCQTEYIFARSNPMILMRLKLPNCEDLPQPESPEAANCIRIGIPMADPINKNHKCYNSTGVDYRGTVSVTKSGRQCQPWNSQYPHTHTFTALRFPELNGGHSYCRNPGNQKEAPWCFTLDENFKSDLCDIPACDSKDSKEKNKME
ROR1 protein (ACROBiosystems, Cat# RO1-H5223) (Q01973, residues 308-395): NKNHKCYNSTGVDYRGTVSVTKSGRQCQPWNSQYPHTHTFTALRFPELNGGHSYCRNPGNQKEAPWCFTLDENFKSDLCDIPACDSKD

How the values were obtained:
ROR1 antigen = ROR1 antigen (UniProt Q01973); assay: BLI
[1] = biological target: ROR1 protein (ACROBiosystems, Cat# RO1-H5223) (UniProt Q01973); assay: ELISA

binding (ROR1 antigen) | binding [1] | Binder
binds |  | murine antibody 17-F12-G8-A6 (antibody, V domains shown) VH: EVTLKESGPGILQPSQTLSLTCSFSGFSLSTSGMGVAWIRQPSGKGLEWLAHIWWDDDKRYNPALKSRLTISKDTSSNQVFLKIASVDTADTATYYCARPQFITTVVAFYWYFDVWGAGTTVTVSS VL: DILLTQSPASLSVSMGETVTITCRASENIYSNLAWYQQKQGKSPQLLVYAATNLADGVPSRFSGSGSGTQYSLKINSLQSEDFGSYYCQHFWGTPWTFGGGTKLEIK
binds | binds | humanized antibody hu17-H2L1 (antibody, human IgG1, kappa, L234A L235A, V domains shown) VH: EVTLKESGPTLVKPTQTLTLTCSFSGFSLSTSGMGVAWIRQPPGKALEWLAHIWWDDDKRYNPALKSRLTITKDTSKNQVVLTITNVDPVDTATYYCARPQFITTVVAFYWYFDVWGQGTTVTVSS VL: DILLTQSPSSLSVSVGDRVTITCRASENIYSNLAWYQQKPGKAPKLLVYAATNLADGVPSRFSGSGSGTQYTLTISSLQPEDFATYYCQHFWGTPWTFGGGTKLEIKR
binds | binds | humanized antibody hu17-H3L1 (antibody, human IgG1, kappa, L234A L235A, V domains shown) VH: QVTLKESGPTLVKPTQTLTLTCSFSGFSLSTSGMGVAWIRQPPGKALEWLAHIWWDDDKRYNPSLKSRLTITKDTSKNQVVLTMTNMDPVDTATYYCARPQFITTVVAFYWYFDVWGQGTTVTVSS VL: DILLTQSPSSLSVSVGDRVTITCRASENIYSNLAWYQQKPGKAPKLLVYAATNLADGVPSRFSGSGSGTQYTLTISSLQPEDFATYYCQHFWGTPWTFGGGTKLEIKR
binds | binds | humanized antibody hu17-H4L1 (antibody, human IgG1, kappa, L234A L235A, V domains shown) VH: QVTLKESGPTLVKPTQTLTLTCTFSGFSLSTSGMGVAWIRQPPGKALEWLAHIWWDDDKRYGPSLKSRLTITKDTSKNQVVLTMTNMDPVDTATYYCARPQFITTVVAFYWYFDVWGQGTTVTVSS VL: DILLTQSPSSLSVSVGDRVTITCRASENIYSNLAWYQQKPGKAPKLLVYAATNLADGVPSRFSGSGSGTQYTLTISSLQPEDFATYYCQHFWGTPWTFGGGTKLEIKR
